Data from doi:10.1101/2020.08.03.234229.
Results are given in words; binding and its absence hold for the method and conditions named. Binding seen in cells or lysates may run through a third protein. Some entries that bind do so weakly or less than the wild type. For some of these results: Tags and fused reporters may be left off the sequences shown.

T1: His6-TSEN15, expressed in HEK293 cells (human) (UniProt Q8WW01)
T1 sequence: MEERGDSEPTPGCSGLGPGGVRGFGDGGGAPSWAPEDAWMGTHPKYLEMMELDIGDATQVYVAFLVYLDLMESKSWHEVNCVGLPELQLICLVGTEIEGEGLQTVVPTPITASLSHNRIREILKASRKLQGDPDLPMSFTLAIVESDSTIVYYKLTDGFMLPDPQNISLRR

T2: endogenous TSEN34 of human fibroblasts (human (endogenous in primary skin fibroblasts)) (UniProt Q9BSV6)
T2 sequence: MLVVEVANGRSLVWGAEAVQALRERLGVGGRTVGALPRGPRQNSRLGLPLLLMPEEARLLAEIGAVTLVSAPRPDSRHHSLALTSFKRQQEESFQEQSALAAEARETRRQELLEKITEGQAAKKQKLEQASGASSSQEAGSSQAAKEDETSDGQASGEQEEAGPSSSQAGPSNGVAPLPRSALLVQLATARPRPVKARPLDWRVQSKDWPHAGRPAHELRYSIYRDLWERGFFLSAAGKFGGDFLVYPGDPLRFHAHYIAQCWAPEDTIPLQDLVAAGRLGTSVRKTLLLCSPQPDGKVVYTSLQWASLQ


Assays:
[1] = biological target: T1, His6-TSEN15, expressed in HEK293 cells (human); assay: pull-down
[2] = biological target: T2, endogenous TSEN34 of human fibroblasts (human (endogenous in primary skin fibroblasts)); assay: co-IP

Binder	binding [1]	binding [2]
TSEN34 R58W (PCH mutation), expressed in HEK293 cells (protein, UniProt Q9BSV6 1-310) MLVVEVANGRSLVWGAEAVQALRERLGVGGRTVGALPRGPRQNSRLGLPLLLMPEEAWLLAEIGAVTLVSAPRPDSRHHSLALTSFKRQQEESFQEQSALAAEARETRRQELLEKITEGQAAKKQKLEQASGASSSQEAGSSQAAKEDETSDGQASGEQEEAGPSSSQAGPSNGVAPLPRSALLVQLATARPRPVKARPLDWRVQSKDWPHAGRPAHELRYSIYRDLWERGFFLSAAGKFGGDFLVYPGDPLRFHAHYIAQCWAPEDTIPLQDLVAAGRLGTSVRKTLLLCSPQPDGKVVYTSLQWASLQ	binds	–
TSEN54 S93P (PCH mutation), expressed in HEK293 cells (protein, UniProt Q7Z6J9 1-526) MEPEPEPAAVEVPAGRVLSARELFAARSRSQKLPQRSHGPKDFLPDGSAAQAERLRRCREELWQLLAEQRVERLGSLVAAEWRPEEGFVELKPPAGKFWQTMGFSEQGRQRLHPEEALYLLECGSIHLFHQDLPLSIQEAYQLLLTDHTVTFLQYQVFSHLKRLGYVVRRFQPSSVLSPYERQLNLDASVQHLEDGDGKRKRSSSSPRSINKKAKALDNSLQPKSLAASSPPPCSQPSQCPEEKPQESSPMKGPGGPFQLLGSLGPSPGPAREGVGCSWESGRAENGVTGAGKRRWNFEQISFPNMASDSRHTLLRAPAPELLPANVAGRETDAESWCQKLNQRKEKLSRREREHHAEAAQFQEDVNADPEVQRCSSWREYKELLQRRQVQRSQRRAPHLWGQPVTPLLSPGQASSPAVVLQHISVLQTTHLPDGGARLLEKSGGLEIIFDVYQADAVATFRKNNPGKPYARMCISGFDEPVPDLCSLKRLSYQSGDVPLIFALVDHGDISFYSFRDFTLPQDVGH	binds	–
TSEN54 A307S (PCH mutation), expressed in HEK293 cells (protein, UniProt Q7Z6J9 1-526) MEPEPEPAAVEVPAGRVLSARELFAARSRSQKLPQRSHGPKDFLPDGSAAQAERLRRCREELWQLLAEQRVERLGSLVAAEWRPEEGFVELKSPAGKFWQTMGFSEQGRQRLHPEEALYLLECGSIHLFHQDLPLSIQEAYQLLLTDHTVTFLQYQVFSHLKRLGYVVRRFQPSSVLSPYERQLNLDASVQHLEDGDGKRKRSSSSPRSINKKAKALDNSLQPKSLAASSPPPCSQPSQCPEEKPQESSPMKGPGGPFQLLGSLGPSPGPAREGVGCSWESGRAENGVTGAGKRRWNFEQISFPNMSSDSRHTLLRAPAPELLPANVAGRETDAESWCQKLNQRKEKLSRREREHHAEAAQFQEDVNADPEVQRCSSWREYKELLQRRQVQRSQRRAPHLWGQPVTPLLSPGQASSPAVVLQHISVLQTTHLPDGGARLLEKSGGLEIIFDVYQADAVATFRKNNPGKPYARMCISGFDEPVPDLCSLKRLSYQSGDVPLIFALVDHGDISFYSFRDFTLPQDVGH	binds	–
endogenous TSEN2 of human fibroblasts (protein, UniProt Q8NCE0 1-465) MAEAVFHAPKRKRRVYETYESPLPIPFGQDHGPLKEFKIFRAEMINNNVIVRNAEDIEQLYGKGYFGKGILSRSRPSFTISDPKLVAKWKDMKTNMPIITSKRYQHSVEWAAELMRRQGQDESTVRRILKDYTKPLEHPPVKRNEEAQVHDKLNSGMVSNMEGTAGGERPSVVNGDSGKSGGVGDPREPLGCLQEGSGCHPTTESFEKSVREDASPLPHVCCCKQDALILQRGLHHEDGSQHIGLLHPGDRGPDHEYVLVEEAECAMSEREAAPNEELVQRNRLICRRNPYRIFEYLQLSLEEAFFLVYALGCLSIYYEKEPLTIVKLWKAFTVVQPTFRTTYMAYHYFRSKGWVPKVGLKYGTDLLLYRKGPPFYHASYSVIIELVDDHFEGSLRRPLSWKSLAALSRVSVNVSKELMLCYLIKPSTMTDKEMESPECMKRIKVQEVILSRWVSSRERSDQDDL	–	binds
